# According to the supplement of paper PMC8728848:
# This is one part of the list.
# B1: LysMD3 (Homo sapiens), Q7Z3D4 (protein)
# chain: MAGRHQNRSFPLPGVQSSGQVHAFGNCSDSDILEEDAEVYELRSRGKEKVRRSTSRDRLDDIIVLTKDIQEGDTLNAIALQYCCTVADIKRVNNLISDQDFFALRSIKIPVKKFSSLTETLCPPKGRQTSRHSSVQYSSEQQEILPANDSLAYSDSAGSFLKEVDRDIEQIVKCTDNKRENLNEVVSALTAQQMRFEPDNKNTQRKDPYYGADWGIG
# Assays:
# Test in all cases: glycan array binding signal (z-score within array); higher = stronger binding
# Details in all cases: glycan notation: IUPAC condensed, linker removed
# [1] = target: GlcNAc(b1-4)GlcNAc(b1-4)GlcNAc(b1-4)GlcNAc(b1-4)GlcNAc
# Outline: (§1)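 The binding signal is a Z-score computed within each array and averaged over linkers. Arrays of the same protein sequence at different concentrations or buffers were also averaged together. Data originate from 3228 arrays in the Consortium for Functional Glycomics database, kept only where the protein sequence was available.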
# [2] = target: GlcNAc(b1-4)GlcNAc(b1-4)GlcNAc(b1-4)GlcNAc(b1-4)GlcNAc(b1-4)GlcNAc
# Outline: as §1
# [3] = target: GlcNAc(b1-4)[GlcNAc(b1-6)]GalNAc
# Outline: as §1
# [4] = target: GlcNAc(b1-6)Gal(b1-4)GlcNAc
# Outline: as §1
# GlcNAc(b1-6)GalNAc = target: GlcNAc(b1-6)GalNAc
# Outline: as §1
# [5] = target: GlcNAc6S(b1-3)Gal(b1-4)GlcNAc
# Outline: as §1
# Kdn(a2-3)Gal(b1-3)GalNAc = target: Kdn(a2-3)Gal(b1-3)GalNAc
# Outline: as §1
# Kdn(a2-3)Gal(b1-3)GlcNAc = target: Kdn(a2-3)Gal(b1-3)GlcNAc
# Outline: as §1
# Kdn(a2-3)Gal(b1-4)Glc = target: Kdn(a2-3)Gal(b1-4)Glc
# Outline: as §1
# Kdn(a2-3)Gal(b1-4)GlcNAc = target: Kdn(a2-3)Gal(b1-4)GlcNAc
# Outline: as §1
# [6] = target: Kdn(a2-3)Gal(b1-4)[Fuc(a1-3)]GlcNAc
# Outline: as §1
# Kdn(a2-6)Gal(b1-4)GlcNAc = target: Kdn(a2-6)Gal(b1-4)GlcNAc
# Outline: as §1
# [7] = target: Man(a1-2)Man(a1-2)Man(a1-3)Man
# Outline: as §1
# [8] = target: Man(a1-2)Man(a1-2)Man(a1-6)[Man(a1-3)]Man
# Outline: as §1
# Man(a1-2)Man(a1-3)Man = target: Man(a1-2)Man(a1-3)Man
# Outline: as §1
# [9] = target: Man(a1-2)Man(a1-3)[Man(a1-2)Man(a1-6)]Man
# Outline: as §1
# [10] = target: Man(a1-2)Man(a1-3)[Man(a1-2)Man(a1-6)]Man(a1-6)[Man(a1-2)Man(a1-2)Man(a1-3)]Man
# Outline: as §1
# [11] = target: Man(a1-2)Man(a1-3)[Man(a1-2)Man(a1-6)]Man(a1-6)[Man(a1-2)Man(a1-2)Man(a1-3)]Man(b1-4)GlcNAc(b1-4)GlcNAc
# Outline: as §1
# [12] = target: Man(a1-2)Man(a1-3)[Man(a1-6)]Man(a1-6)[Man(a1-2)Man(a1-3)]Man(b1-4)GlcNAc(b1-4)GlcNAc
# Outline: as §1
# [13] = target: Man(a1-2)Man(a1-6)[Man(a1-3)]Man(a1-6)[Man(a1-2)Man(a1-2)Man(a1-3)]Man
# Outline: as §1
# [14] = target: Man(a1-2)Man(a1-6)[Man(a1-3)]Man(a1-6)[Man(a1-2)Man(a1-2)Man(a1-3)]Man(b1-4)GlcNAc(b1-4)GlcNAc
# Outline: as §1
# Man(a1-3)[Man(a1-6)]Man = target: Man(a1-3)[Man(a1-6)]Man
# Outline: as §1
# [15] = target: Man(a1-3)[Man(a1-6)]Man(a1-6)[Man(a1-2)Man(a1-3)]Man(b1-4)GlcNAc(b1-4)GlcNAc
# Outline: as §1
# [16] = target: Man(a1-3)[Man(a1-6)]Man(a1-6)[Man(a1-3)]Man
# Outline: as §1
# [17] = target: Man(a1-3)[Man(a1-6)]Man(a1-6)[Man(a1-3)]Man(b1-4)GlcNAc(b1-4)GlcNAc
# Outline: as §1
# [18] = target: Man(a1-3)[Man(a1-6)]Man(b1-4)GlcNAc(b1-4)GlcNAc
# Outline: as §1
# [19] = target: Man(a1-3)[Man(a1-6)]Man(b1-4)GlcNAc(b1-4)[Fuc(a1-6)]GlcNAc
# Outline: as §1
# Man(a1-6)Man = target: Man(a1-6)Man
# Outline: as §1
# Man(b1-4)GlcNAc = target: Man(b1-4)GlcNAc
# Outline: as §1
# MurNAc(b1-4)GlcNAc = target: MurNAc(b1-4)GlcNAc
# Outline: as §1
# Neu5Ac(a2-3)Gal = target: Neu5Ac(a2-3)Gal
# Outline: as §1
# [20] = target: Neu5Ac(a2-3)Gal(b1-3)GalNAc
# Outline: as §1
# [21] = target: Neu5Ac(a2-3)Gal(b1-3)GalNAc(b1-3)Gal(a1-4)Gal(b1-4)Glc
# Outline: as §1
# [22] = target: Neu5Ac(a2-3)Gal(b1-3)GalNAc(b1-4)Gal(b1-4)Glc
# Outline: as §1
# [23] = target: Neu5Ac(a2-3)Gal(b1-3)GalNAc(b1-4)[Neu5Ac(a2-3)]Gal(b1-4)Glc
# Outline: as §1
# [24] = target: Neu5Ac(a2-3)Gal(b1-3)GalNAc(b1-4)[Neu5Ac(a2-8)Neu5Ac(a2-3)]Gal(b1-4)Glc
# Outline: as §1
# [25] = target: Neu5Ac(a2-3)Gal(b1-3)GalNAc6S
# Outline: as §1
# [26] = target: Neu5Ac(a2-3)Gal(b1-3)GlcNAc
# Outline: as §1
# [27] = target: Neu5Ac(a2-3)Gal(b1-3)GlcNAc(b1-2)Man
# Outline: as §1
# [28] = target: Neu5Ac(a2-3)Gal(b1-3)GlcNAc(b1-2)Man(a1-3)[GlcNAc(b1-4)][Neu5Ac(a2-3)Gal(b1-3)GlcNAc(b1-2)Man(a1-6)]Man(b1-4)GlcNAc(b1-4)GlcNAc
# Outline: as §1
# [29] = target: Neu5Ac(a2-3)Gal(b1-3)GlcNAc(b1-2)Man(a1-3)[Neu5Ac(a2-3)Gal(b1-3)GlcNAc(b1-2)Man(a1-6)]Man(b1-4)GlcNAc(b1-4)GlcNAc
# Outline: as §1
# [30] = target: Neu5Ac(a2-3)Gal(b1-3)GlcNAc(b1-2)[Neu5Ac(a2-3)Gal(b1-3)GlcNAc(b1-4)]Man(a1-6)[Neu5Ac(a2-3)Gal(b1-3)GlcNAc(b1-2)Man(a1-3)]Man(b1-4)GlcNAc(b1-4)GlcNAc
# Outline: as §1
# [31] = target: Neu5Ac(a2-3)Gal(b1-3)GlcNAc(b1-3)Gal(b1-3)GlcNAc
# Outline: as §1
# [32] = target: Neu5Ac(a2-3)Gal(b1-3)GlcNAc(b1-3)Gal(b1-4)GlcNAc
# Outline: as §1
# [33] = target: Neu5Ac(a2-3)Gal(b1-3)GlcNAc(b1-3)GalNAc
# Outline: as §1
binder,measurement,setting,value
B1,glycan array binding signal (z-score),[1],-0.593
same,glycan array binding signal (z-score),[2],-0.487
same,glycan array binding signal (z-score),[3],0.46
same,glycan array binding signal (z-score),[4],-0.722
same,glycan array binding signal (z-score),GlcNAc(b1-6)GalNAc,0.427
same,glycan array binding signal (z-score),[5],-0.752
same,glycan array binding signal (z-score),Kdn(a2-3)Gal(b1-3)GalNAc,0.37
same,glycan array binding signal (z-score),Kdn(a2-3)Gal(b1-3)GlcNAc,0.321
same,glycan array binding signal (z-score),Kdn(a2-3)Gal(b1-4)Glc,0.389
same,glycan array binding signal (z-score),Kdn(a2-3)Gal(b1-4)GlcNAc,0.469
same,glycan array binding signal (z-score),[6],-0.234
same,glycan array binding signal (z-score),Kdn(a2-6)Gal(b1-4)GlcNAc,0.967
same,glycan array binding signal (z-score),[7],1.12
same,glycan array binding signal (z-score),[8],0.196
same,glycan array binding signal (z-score),Man(a1-2)Man(a1-3)Man,1.3
same,glycan array binding signal (z-score),[9],-0.06
same,glycan array binding signal (z-score),[10],0.422
same,glycan array binding signal (z-score),[11],0.209
same,glycan array binding signal (z-score),[12],-0.627
same,glycan array binding signal (z-score),[13],0.458
same,glycan array binding signal (z-score),[14],-0.445
same,glycan array binding signal (z-score),Man(a1-3)[Man(a1-6)]Man,0.098
same,glycan array binding signal (z-score),[15],0.207
same,glycan array binding signal (z-score),[16],-1.07
same,glycan array binding signal (z-score),[17],-0.113
same,glycan array binding signal (z-score),[18],-0.343
same,glycan array binding signal (z-score),[19],-0.85
same,glycan array binding signal (z-score),Man(a1-6)Man,-0.963
same,glycan array binding signal (z-score),Man(b1-4)GlcNAc,-0.259
same,glycan array binding signal (z-score),MurNAc(b1-4)GlcNAc,0.119
same,glycan array binding signal (z-score),Neu5Ac(a2-3)Gal,-0.312
same,glycan array binding signal (z-score),[20],-0.71
same,glycan array binding signal (z-score),[21],-0.258
same,glycan array binding signal (z-score),[22],0.227
same,glycan array binding signal (z-score),[23],-0.402
same,glycan array binding signal (z-score),[24],-0.528
same,glycan array binding signal (z-score),[25],-0.837
same,glycan array binding signal (z-score),[26],-0.413
same,glycan array binding signal (z-score),[27],-0.023
same,glycan array binding signal (z-score),[28],-0.304
same,glycan array binding signal (z-score),[29],-0.729
same,glycan array binding signal (z-score),[30],-0.094
same,glycan array binding signal (z-score),[31],-0.197
same,glycan array binding signal (z-score),[32],1.11
same,glycan array binding signal (z-score),[33],-0.758

# Pulled one by one from above, three records:
binder,measurement,setting,value
B1,glycan array binding signal (z-score),[15],0.207
same,glycan array binding signal (z-score),[11],0.209
same,glycan array binding signal (z-score),[18],-0.343
